Laboratory results taken from the supplement of paper PMC10849652.
The list shows a part of the results.

The chains behind the UniProt entries cited, without tags or fusion partners. Where a name states a change or a piece, a line headed by the entry shows the natural chain unless it says otherwise.
UniProt Q9H0U3: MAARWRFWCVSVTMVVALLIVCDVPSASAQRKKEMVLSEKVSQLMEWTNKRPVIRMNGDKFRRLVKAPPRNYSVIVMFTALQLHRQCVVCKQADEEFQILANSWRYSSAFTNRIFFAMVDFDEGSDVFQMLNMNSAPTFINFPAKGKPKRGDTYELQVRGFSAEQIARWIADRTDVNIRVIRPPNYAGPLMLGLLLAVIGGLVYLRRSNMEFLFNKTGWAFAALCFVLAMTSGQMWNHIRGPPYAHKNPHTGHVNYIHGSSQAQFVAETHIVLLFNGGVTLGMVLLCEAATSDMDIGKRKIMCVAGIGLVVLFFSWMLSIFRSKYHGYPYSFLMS
UniProt O43325: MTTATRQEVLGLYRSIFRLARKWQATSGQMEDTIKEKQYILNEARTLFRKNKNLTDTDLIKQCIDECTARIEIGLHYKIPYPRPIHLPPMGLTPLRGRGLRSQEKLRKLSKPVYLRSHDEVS
UniProt P02788: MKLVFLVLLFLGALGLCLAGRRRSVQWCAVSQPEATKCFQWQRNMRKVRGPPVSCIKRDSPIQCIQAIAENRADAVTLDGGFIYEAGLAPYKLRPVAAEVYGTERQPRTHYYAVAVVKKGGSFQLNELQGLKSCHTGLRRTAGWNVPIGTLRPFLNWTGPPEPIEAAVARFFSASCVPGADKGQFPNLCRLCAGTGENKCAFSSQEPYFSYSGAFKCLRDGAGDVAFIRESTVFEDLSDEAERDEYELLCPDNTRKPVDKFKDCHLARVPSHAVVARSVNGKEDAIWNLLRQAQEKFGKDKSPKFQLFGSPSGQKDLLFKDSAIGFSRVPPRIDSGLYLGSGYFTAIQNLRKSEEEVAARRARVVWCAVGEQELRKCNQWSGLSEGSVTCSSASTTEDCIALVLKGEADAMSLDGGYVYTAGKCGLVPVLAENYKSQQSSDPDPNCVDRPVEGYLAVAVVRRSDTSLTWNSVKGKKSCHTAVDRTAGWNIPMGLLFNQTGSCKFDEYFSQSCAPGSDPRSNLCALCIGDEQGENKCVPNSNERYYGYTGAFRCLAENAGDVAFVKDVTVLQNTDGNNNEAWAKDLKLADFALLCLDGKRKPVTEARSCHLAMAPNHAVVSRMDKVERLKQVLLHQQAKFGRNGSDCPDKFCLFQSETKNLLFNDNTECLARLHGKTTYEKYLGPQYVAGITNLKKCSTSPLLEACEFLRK
UniProt Q13163: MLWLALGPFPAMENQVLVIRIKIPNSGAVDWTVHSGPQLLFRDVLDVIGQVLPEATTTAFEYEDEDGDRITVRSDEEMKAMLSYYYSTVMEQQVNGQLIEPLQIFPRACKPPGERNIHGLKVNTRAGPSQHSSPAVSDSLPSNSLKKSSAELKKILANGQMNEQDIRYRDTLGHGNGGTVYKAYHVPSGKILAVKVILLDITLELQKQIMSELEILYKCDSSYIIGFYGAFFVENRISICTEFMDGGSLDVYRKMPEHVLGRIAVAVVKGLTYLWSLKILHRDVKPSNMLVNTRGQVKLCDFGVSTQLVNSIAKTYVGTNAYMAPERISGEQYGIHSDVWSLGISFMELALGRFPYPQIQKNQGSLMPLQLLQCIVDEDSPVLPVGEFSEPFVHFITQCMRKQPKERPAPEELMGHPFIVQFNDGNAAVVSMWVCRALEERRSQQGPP
UniProt P43356, whole entry, looked up: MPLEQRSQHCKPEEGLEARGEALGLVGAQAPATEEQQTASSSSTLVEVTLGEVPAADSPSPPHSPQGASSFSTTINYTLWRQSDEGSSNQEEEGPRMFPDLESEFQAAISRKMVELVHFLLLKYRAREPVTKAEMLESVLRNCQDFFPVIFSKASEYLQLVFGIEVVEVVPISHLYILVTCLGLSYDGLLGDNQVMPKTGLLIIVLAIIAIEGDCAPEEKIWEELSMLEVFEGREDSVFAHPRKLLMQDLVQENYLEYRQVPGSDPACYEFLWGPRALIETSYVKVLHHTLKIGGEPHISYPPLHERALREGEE
UniProt P43360, whole entry, looked up: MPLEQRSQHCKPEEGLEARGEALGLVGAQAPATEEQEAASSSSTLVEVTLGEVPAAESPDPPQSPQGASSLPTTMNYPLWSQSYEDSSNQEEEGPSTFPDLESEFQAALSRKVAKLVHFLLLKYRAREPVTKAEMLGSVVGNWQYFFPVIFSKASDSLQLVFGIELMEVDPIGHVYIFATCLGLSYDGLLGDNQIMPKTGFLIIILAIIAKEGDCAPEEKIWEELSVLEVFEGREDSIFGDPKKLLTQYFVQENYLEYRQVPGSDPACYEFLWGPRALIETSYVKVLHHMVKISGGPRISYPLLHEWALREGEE
UniProt Q14210: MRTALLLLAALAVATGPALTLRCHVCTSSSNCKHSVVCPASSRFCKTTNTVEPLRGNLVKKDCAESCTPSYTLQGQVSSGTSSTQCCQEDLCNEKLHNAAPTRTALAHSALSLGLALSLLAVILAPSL
UniProt P27816: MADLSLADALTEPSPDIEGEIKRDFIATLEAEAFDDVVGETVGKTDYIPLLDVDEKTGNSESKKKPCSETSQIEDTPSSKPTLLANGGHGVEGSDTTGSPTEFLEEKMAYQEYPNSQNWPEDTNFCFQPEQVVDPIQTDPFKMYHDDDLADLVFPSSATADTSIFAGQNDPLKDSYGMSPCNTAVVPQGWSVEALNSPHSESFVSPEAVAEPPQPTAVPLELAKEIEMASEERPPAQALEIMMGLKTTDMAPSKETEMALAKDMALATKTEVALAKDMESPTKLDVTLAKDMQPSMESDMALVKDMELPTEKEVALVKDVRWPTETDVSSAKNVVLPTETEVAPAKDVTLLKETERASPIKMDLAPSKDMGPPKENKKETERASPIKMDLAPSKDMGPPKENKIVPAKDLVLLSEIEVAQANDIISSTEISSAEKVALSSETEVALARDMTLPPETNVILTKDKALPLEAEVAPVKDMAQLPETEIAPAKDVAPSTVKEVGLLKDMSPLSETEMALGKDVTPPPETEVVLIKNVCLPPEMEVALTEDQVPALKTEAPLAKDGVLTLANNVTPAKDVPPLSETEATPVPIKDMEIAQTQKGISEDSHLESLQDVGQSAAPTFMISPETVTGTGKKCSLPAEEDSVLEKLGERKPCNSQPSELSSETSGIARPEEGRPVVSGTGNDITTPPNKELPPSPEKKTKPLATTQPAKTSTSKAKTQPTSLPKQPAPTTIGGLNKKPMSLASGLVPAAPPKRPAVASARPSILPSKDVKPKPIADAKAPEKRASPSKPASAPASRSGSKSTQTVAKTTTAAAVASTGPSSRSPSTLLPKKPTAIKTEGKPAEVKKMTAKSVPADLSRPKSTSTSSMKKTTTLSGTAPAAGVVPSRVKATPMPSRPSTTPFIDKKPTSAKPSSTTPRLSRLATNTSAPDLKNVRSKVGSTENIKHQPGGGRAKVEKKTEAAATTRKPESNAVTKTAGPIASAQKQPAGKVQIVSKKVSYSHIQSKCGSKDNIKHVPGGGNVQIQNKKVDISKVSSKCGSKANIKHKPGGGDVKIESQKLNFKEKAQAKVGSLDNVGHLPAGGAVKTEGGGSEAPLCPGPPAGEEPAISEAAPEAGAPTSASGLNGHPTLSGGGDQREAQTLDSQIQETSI
UniProt O95382: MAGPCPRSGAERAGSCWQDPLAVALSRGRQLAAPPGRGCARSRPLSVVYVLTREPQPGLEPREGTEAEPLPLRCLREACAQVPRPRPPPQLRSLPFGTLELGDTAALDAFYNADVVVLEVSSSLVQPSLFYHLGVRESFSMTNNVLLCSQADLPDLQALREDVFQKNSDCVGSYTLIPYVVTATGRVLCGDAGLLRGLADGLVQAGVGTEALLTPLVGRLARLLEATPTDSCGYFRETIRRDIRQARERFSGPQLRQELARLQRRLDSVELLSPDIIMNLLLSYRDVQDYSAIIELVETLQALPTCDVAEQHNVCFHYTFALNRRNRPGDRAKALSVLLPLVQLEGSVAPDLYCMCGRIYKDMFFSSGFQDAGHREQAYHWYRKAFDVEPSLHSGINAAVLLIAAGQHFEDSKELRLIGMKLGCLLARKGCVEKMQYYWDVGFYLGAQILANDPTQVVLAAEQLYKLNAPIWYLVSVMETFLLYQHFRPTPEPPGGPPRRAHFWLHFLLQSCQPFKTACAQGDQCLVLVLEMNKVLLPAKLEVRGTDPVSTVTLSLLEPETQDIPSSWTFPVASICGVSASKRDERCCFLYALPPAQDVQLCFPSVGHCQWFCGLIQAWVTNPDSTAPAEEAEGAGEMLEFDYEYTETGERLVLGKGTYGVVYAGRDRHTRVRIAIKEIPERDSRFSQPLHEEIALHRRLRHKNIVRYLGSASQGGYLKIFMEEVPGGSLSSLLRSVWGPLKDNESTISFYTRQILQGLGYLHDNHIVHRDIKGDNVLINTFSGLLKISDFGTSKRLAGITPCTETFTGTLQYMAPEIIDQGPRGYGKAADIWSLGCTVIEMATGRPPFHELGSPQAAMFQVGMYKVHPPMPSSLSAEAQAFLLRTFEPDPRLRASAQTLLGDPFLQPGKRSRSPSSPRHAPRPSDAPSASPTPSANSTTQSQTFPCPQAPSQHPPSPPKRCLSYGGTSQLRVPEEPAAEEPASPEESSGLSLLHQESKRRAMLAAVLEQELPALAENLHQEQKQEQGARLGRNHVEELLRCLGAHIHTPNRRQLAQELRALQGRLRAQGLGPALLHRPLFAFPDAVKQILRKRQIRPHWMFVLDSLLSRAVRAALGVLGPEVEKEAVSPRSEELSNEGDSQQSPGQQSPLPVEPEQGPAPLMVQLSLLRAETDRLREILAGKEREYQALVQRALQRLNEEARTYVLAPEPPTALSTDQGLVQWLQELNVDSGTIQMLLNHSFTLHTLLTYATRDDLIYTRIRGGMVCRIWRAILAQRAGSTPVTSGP
UniProt Q9HAY2: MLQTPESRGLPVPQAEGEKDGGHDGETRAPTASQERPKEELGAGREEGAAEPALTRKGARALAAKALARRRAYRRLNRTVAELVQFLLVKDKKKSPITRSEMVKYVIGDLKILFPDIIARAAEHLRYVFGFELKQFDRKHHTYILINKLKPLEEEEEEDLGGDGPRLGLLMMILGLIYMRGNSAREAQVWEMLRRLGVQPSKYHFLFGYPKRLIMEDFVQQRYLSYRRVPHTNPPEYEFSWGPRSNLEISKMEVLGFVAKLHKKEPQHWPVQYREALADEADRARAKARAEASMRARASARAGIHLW
UniProt Q9H992: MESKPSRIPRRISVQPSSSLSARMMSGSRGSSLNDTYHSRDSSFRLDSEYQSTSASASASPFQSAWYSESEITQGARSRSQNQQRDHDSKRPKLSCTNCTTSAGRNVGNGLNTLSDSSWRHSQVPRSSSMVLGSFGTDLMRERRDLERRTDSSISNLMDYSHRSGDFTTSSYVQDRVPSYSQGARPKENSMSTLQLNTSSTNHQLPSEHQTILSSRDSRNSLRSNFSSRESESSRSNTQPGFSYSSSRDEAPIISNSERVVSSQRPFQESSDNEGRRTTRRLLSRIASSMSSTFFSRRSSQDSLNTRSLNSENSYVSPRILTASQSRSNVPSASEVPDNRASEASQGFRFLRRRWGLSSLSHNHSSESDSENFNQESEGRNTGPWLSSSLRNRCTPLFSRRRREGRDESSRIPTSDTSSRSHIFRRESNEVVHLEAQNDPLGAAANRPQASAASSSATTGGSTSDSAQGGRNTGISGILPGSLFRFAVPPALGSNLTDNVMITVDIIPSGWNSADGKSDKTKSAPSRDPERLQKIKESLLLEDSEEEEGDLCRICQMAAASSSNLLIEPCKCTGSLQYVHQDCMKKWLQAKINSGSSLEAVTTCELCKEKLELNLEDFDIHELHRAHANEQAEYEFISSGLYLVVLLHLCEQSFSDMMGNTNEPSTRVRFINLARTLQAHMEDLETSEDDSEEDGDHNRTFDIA
UniProt Q9BRK4: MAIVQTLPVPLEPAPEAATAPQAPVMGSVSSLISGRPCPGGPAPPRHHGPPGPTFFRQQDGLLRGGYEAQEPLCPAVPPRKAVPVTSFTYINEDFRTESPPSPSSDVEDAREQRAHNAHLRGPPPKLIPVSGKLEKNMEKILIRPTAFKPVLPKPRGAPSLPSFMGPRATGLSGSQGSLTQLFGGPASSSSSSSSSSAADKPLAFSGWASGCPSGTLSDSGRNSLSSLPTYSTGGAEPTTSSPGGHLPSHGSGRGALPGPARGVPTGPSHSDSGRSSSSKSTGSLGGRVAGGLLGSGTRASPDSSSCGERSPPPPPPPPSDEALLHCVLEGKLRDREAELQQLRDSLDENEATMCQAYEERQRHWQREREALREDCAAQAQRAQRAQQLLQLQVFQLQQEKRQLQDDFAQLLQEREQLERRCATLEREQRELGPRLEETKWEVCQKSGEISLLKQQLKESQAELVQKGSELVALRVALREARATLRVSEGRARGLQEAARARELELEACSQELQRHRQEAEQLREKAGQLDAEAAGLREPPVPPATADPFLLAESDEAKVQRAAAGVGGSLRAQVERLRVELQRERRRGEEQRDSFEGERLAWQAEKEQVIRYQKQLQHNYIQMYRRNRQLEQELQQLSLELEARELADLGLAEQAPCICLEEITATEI

Experiments:
Assay in all cases: log2 fold change, soluble protein after heating vs DMSO (PISA); higher = thermal stabilisation; K562 lysate, 10 uM; active = over 0.2 and 3.5 SD of the protein, either way, in both replicates (recomputed)
[1] = compound: CN1CC[C@H](c2c(O)cc(O)c3c(=O)cc(-c4ccccc4Cl)oc23)[C@H](O)C1 [alvocidib]
Procedure, shortened: (§1)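 Thermal stability, expressed as log-two fold change relative to solvent controls, is given from duplicates. Crude K562 extract in PBS pH 7.4 with 1 mM MgCl2, at 1 mg/mL protein, was treated with 10 μM compound for 30 min and heated in aliquots for 3 min across 48°C-58°C. After pooling, adjustment to 0.5% NP-40 at 4°C and centrifugation at 21,000xg for 90 min, supernatant protein was measured by TMTpro 16plex LC-MS/MS with channel sums equalised.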

[2] = compound: CN1CCc2c(c3ccccc3n2Cc2ccc(C(=O)NO)cc2)C1 [Tubastatin A]
Procedure, shortened: as §1

[3] = compound: CNC(=O)C1=CC=CC=C1NC2=NC(=NC=C2Cl)NC3=C(C=C(C=C3)N4CCOCC4)OC
Procedure, shortened: as §1

[4] = compound: CNc1nc(-c2ccc3c(N)n[nH]c3c2)cc(N2C[C@@H](C(=O)NC3CCCCC3)CC[C@H]2C)n1
Procedure, shortened: as §1

[5] = compound: COC(=O)N[C@@H](C)CNc1nccc(-c2cn(C(C)C)nc2-c2cc(Cl)cc(NS(C)(=O)=O)c2F)n1 [encorafenib]
Procedure, shortened: as §1

[6] = compound: COC(=O)[C@H](CCSC)NC(=O)C1=C(C=C(C=C1)NC[C@H](CS)N)C2=CC=CC=C2
Procedure, shortened: as §1

[7] = compound: COc1cc(Nc2ncc3c(n2)-c2ccc(Cl)cc2C(c2c(F)cccc2OC)=NC3)ccc1C(=O)O [alisertib]
Procedure, shortened: as §1

[8] = compound: COc1cc2nc(-c3cc(F)ccc3O)nc(N[C@@H]3CNC[C@H]3C(C)(C)O)c2cc1OC
Procedure, shortened: as §1

[9] = compound: COc1cc2ncnc(Nc3ccc(F)c(Cl)c3)c2cc1OCCCN1CCOCC1 [gefitinib]
Procedure, shortened: as §1

[10] = compound: CNC(=O)c1ccc(Nc2ncc(C(F)(F)F)c(NCc3nccnc3N(C)S(C)(=O)=O)n2)cc1 [defactinib]
Procedure, shortened: as §1

Measured: log2 fold change

MAN2B2 (UniProt Q9Y2E5)
inactive: [1] 0.199 | [2] 0.029 | [3] -0.006 | [4] 0.059 | [5] -0.004 | [6] 0.073 | [7] 0.032 | [8] 0.049 | [9] -0.017

MAGT1 (UniProt Q9H0U3)
inactive: [1] -0.025 | [2] -0.015 | [3] -0.002 | [10] 0.061 | [4] 0.025 | [5] 0.027 | [6] -0.003 | [7] -0.001 | [8] 0.009 | [9] -0.017

LYRM1 (UniProt O43325)
inactive: [1] -0.343 | [3] 0.083 | [10] 0.157 | [4] -0.014

MAFG (UniProt O15525)
inactive: [1] 0.015 | [2] -0.075 | [3] 0.094 | [4] -0.009 | [5] 0.029 | [6] 0.245 | [7] 0.177 | [8] 0.066 | [9] -0.06

MAGED1 isoform 2 (UniProt Q9Y5V3)
inactive: [1] -0.162 | [2] -0.012 | [3] -0.114 | [10] 0.053 | [7] 0.006 | [8] -0.125 | [9] -0.037

LTF (UniProt P02788)
inactive: [1] 0.021 | [2] 0.123 | [3] -0.047 | [10] -0.078 | [4] -0.319 | [5] -0.071 | [6] 0.007 | [7] -0.09 | [8] 0.036 | [9] 0.094

MAP2K5 (UniProt Q13163)
inactive: [1] 0.067 | [2] -0.033 | [3] 0.086 | [10] -0.026 | [4] 0.329 | [5] 0.149 | [6] -0.15 | [7] -0.016 | [8] 0.054 | [9] 0.155

MANEA (UniProt Q5SRI9)
inactive: [1] -0.078 | [2] -0.08 | [3] -0.016 | [10] 0.062 | [4] -0.09 | [5] 0.028 | [6] -0.07 | [8] 0.041

MAP3K20 isoform 2 (UniProt Q9NYL2)
inactive: [1] 0.048 | [2] -0.012 | [3] 0.011 | [10] 0.109 | [4] -0.095 | [5] 0.076 | [6] -0.114 | [8] -0.016 | [9] -0.073

MAP3K20 (UniProt Q9NYL2)
inactive: [1] 0.048 | [2] -0.027 | [3] -0.01 | [10] -0.007 | [4] 0.247 | [5] 0.213 | [6] -0.033 | [8] -0.01 | [9] 0.022

LYPLA1, A0A087X1K9
inactive: [1] -0.113 | [2] 0.154 | [10] -0.171 | [5] 0.193 | [6] -0.333 | [8] -0.244

MAGEA12 (UniProt P43365)
inactive: [1] -0.057 | [10] 0.018 | [5] 0.12 | [6] -0.003

MAGEA2 (UniProt P43356)
inactive: [4] -0.136 | [5] -0.28 | [6] 0.039

MAP4K3 (UniProt Q8IVH8)
inactive: [2] -0.136 | [4] -0.361

MAPK3 (UniProt H0YEX6)
inactive: [7] -0.128 | [9] -0.016

Retrieved one by one from above, two records:
MAGEA2 (UniProt P43356)
inactive: [4] -0.136 | [5] -0.28 | [6] 0.039

MAN2B2 (UniProt Q9Y2E5)
inactive: [1] 0.199 | [2] 0.029 | [3] -0.006 | [4] 0.059 | [5] -0.004 | [6] 0.073 | [7] 0.032 | [8] 0.049 | [9] -0.017

(list continues)

MARCHF6 (UniProt O60337)
inactive: [1] 0.07 | [3] -0.039 | [10] 0.046 | [4] 0.084 | [5] 0.08 | [6] -0.05 | [7] -0.321 | [8] 0.008 | [9] 0.019

MAGEA6 (UniProt P43360)
inactive: [3] -0.023 | [10] 0.058 | [5] 0.042 | [6] -0.071

LY6D (UniProt Q14210)
inactive: [4] -0.989

MARCHF3 (UniProt Q86UD3)
inactive: [1] -0.121 | [10] 0.032 | [5] -0.02 | [6] -0.126

LTBP1 isoform 4 (UniProt Q14766)
inactive: [1] -0.015 | [3] -0.243 | [4] -0.199 | [5] 0.013 | [6] -0.179 | [7] -0.036 | [9] 0.065

MAPT isoform 7 (UniProt P10636)
inactive: [1] 0.095 | [10] -0.099 | [8] 0.018

MAP4 isoform 5 (UniProt P27816)
inactive: [2] 0.077 | [3] 0.087 | [10] -0.086 | [4] 0.138 | [5] -0.051 | [6] -0.025 | [7] 0.047 | [8] -0.028 | [9] 0.039

MACF1 (UniProt E9PLY5)
inactive: [1] -0.217 | [7] -0.024 | [8] 0.101 | [9] -0.016

MAGEA3 (UniProt P43357)
inactive: [10] -0.052 | [5] -0.069 | [6] 0.137

MAFF (UniProt Q9ULX9)
inactive: [1] 0.082 | [3] 0.24 | [10] 0.189 | [5] -0.131 | [6] -0.156 | [8] 0.021

MAP3K6 (UniProt O95382)
inactive: [10] -0.096 | [5] 0.167 | [6] -0.031 | [7] 0.026 | [9] -0.022

MAP4K4 isoform 6 (UniProt O95819)
inactive: [2] 0.024 | [3] -0.067 | [4] -0.016 | [5] 0.207 | [6] -0.034 | [8] -0.058

MAGI1 (UniProt H7C4S7)
inactive: [4] -0.083

MAPK11 (UniProt Q15759)
inactive: [2] -0.001 | [3] 0.709 | [7] -0.082 | [8] -0.296 | [9] 0.02

MAPK15 (UniProt Q8TD08)
inactive: [2] 0.106 | [3] 0.019 | [4] 0.187 | [7] -0.075 | [9] 0

MAPK12 (UniProt P53778)
inactive: [2] 0.022 | [3] 0.025 | [10] -0.077 | [4] 0.054 | [5] -0.001 | [6] 0.035 | [7] -0.114 | [9] -0.057

MAGEF1 (UniProt Q9HAY2)
inactive: [2] 0.2 | [3] 0.045 | [4] 0.904 | [8] 0.161

MARCHF7 (UniProt Q9H992)
inactive: [4] -0.023

MAP7 (UniProt Q14244)
inactive: [1] -0.05 | [3] -0.02 | [10] 0.031 | [4] 0.021 | [5] 0.109 | [6] 0.009 | [7] 0.043 | [8] 0.021 | [9] 0.048

MAP4K4 isoform 3 (UniProt O95819)
inactive: [2] -0.016 | [3] -0.028 | [10] 0.03 | [4] -0.08 | [5] -0.075 | [6] -0.014 | [8] 0.035 | [9] -0.051

MAOA (UniProt P21397)
inactive: [4] 0.091

MAPKAP1 (UniProt Q9BPZ7)
inactive: [2] -0.125 | [3] -0.119 | [4] 0.081 | [5] -0.051 | [6] 0.036 | [7] -0.094 | [9] 0.07

LY6E (UniProt Q16553)
inactive: [1] -0.726 | [10] -0.024 | [5] 0.03 | [6] -0.005 | [7] 0.029 | [8] 0.016 | [9] -0.013

LZTS2 (UniProt Q9BRK4)
inactive: [3] 0.073 | [10] -0.224 | [4] 0.082 | [5] -0.253 | [6] -0.158 | [7] 0.008 | [8] -0.063 | [9] 0.127

LTBR (UniProt P36941)
inactive: [1] -0.139 | [3] -0.05 | [8] 0.132

MAP3K3 isoform 2 (UniProt Q99759)
inactive: [2] -0.069 | [3] 0.134 | [10] 0.128 | [4] -0.06 | [5] -0.237 | [6] -0.202 | [7] 0.263 | [9] 0.164

MAPK7 (UniProt Q13164)
inactive: [1] 0.069 | [3] 0.002 | [5] -0.03 | [6] -0.114 | [8] 0.157

MAST3 (UniProt O60307)
inactive: [2] -0.08 | [3] -0.075 | [4] -0.042 | [5] 0.049 | [6] -0.051 | [8] -0.032

MAP3K8 (UniProt P41279)
inactive: [1] -0.142 | [4] -0.206
